These are yes or no findings as the source states them, for the method shown. In cells and extracts the contact can be indirect. Here binding means that the protein was enriched with, or labelled near, the bait; the list need not be complete.
Molecular target: adenylate kinase 4 (AK4) (human (endogenous in 6-10B)) (UniProt P27144)
Assay: affinity purification with mass spectrometry; 6-10B lysate in IP lysis buffer, anti-AK4 antibody (anti-IgG as negative control) at 4 °C overnight, Protein A/G Sepharose beads, mass spectrometry of the immune complexes

Chains of the proteins cited; added tags and fusions are not shown.
UniProt P27144: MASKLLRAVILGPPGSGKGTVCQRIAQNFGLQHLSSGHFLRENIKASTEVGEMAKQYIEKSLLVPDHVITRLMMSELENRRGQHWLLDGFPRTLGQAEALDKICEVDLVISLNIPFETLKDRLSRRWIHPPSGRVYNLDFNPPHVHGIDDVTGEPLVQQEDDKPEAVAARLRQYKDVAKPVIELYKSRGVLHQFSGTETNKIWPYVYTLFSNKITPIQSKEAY

- binding: binds
B1: nicotinamide nucleotide transhydrogenase (NNT) (protein, UniProt Q13423 44-1086)
chain: CKAPVKPGIPYKQLTVGVPKEIFQNEKRVALSPAGVQNLVKQGFNVVVESGAGEASKFSDDHYRVAGAQIQGAKEVLASDLVVKVRAPMVNPTLGVHEADLLKTSGTLISFIYPAQNPELLNKLSQRKTTVLAMDQVPRVTIAQGYDALSSMANIAGYKAVVLAANHFGRFFTGQITAAGKVPPAKILIVGGGVAGLASAGAAKSMGAIVRGFDTRAAALEQFKSLGAEPLEVDLKESGEGQGGYAKEMSKEFIEAEMKLFAQQCKEVDILISTALIPGKKAPVLFNKEMIESMKEGSVVVDLAAEAGGNFETTKPGELYIHKGITHIGYTDLPSRMATQASTLYSNNITKLLKAISPDKDNFYFDVKDDFDFGTMGHVIRGTVVMKDGKVIFPAPTPKNIPQGAPVKQKTVAELEAEKAATITPFRKTMSTASAYTAGLTGILGLGIAAPNLAFSQMVTTFGLAGIVGYHTVWGVTPALHSPLMSVTNAISGLTAVGGLALMGGHLYPSTTSQGLAALAAFISSVNIAGGFLVTQRMLDMFKRPTDPPEYNYLYLLPAGTFVGGYLAALYSGYNIEQIMYLGSGLCCVGALAGLSTQGTARLGNALGMIGVAGGLAATLGVLKPGPELLAQMSGAMALGGTIGLTIAKRIQISDLPQLVAAFHSLVGLAAVLTCIAEYIIEYPHFATDAAANLTKIVAYLGTYIGGVTFSGSLIAYGKLQGLLKSAPLLLPGRHLLNAGLLAASVGGIIPFMVDPSFTTGITCLGSVSALSAVMGVTLTAAIGGADMPVVITVLNSYSGWALCAEGFLLNNNLLTIVGALIGSSGAILSYIMCVAMNRSLANVILGGYGTTSTAGGKPMEISGTHTEINLDNAIDMIREANSIIITPGYGLCAAKAQYPIADLVKMLTEQGKKVRFGIHPVAGRMPGQLNVLLAEAGVPYDIVLEMDEINHDFPDTDLVLVIGANDTVNSAAQEDPNSIIAGMPVLEVWKSKQVIVMKRSLGVGYAAVDNPIFYKPNTAMLLGDAKKTCDALQAKVRESYQK
